These are yes or no findings as the source states them, for the method shown.
Molecular target: actin-binding domain (ABD) of S. pombe α-actinin (Schizosaccharomyces pombe) (UniProt O13728)
Test: SEC; gel filtration on Superdex 200 10/300GL in 50 mM Tris-HCl, pH 7.6, 200 mM KCl (also Sephacryl S-400HR in 25 mM sodium phosphate, pH 7.6, 150 mM NaCl); elution compared with reference proteins; dimer formation judged from apparent size; both purified

Sequences of proteins named here, by UniProt entry; tags and fusion partners are left off. Residues count along the entry.
UniProt O13728, residues 1-234: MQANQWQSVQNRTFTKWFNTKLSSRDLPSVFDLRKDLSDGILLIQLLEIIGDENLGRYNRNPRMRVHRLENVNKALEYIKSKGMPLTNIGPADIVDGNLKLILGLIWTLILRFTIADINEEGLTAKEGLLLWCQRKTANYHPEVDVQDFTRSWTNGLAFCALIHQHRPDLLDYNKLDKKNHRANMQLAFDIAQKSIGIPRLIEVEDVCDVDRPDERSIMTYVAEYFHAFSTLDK

- binding: no binding
Substance: actin-binding domain (ABD) of S. pombe α-actinin (from UniProt O13728 1-234) (domain or fragment)
